# Test results taken from PubChem BioAssay AID1347076 (National Center for Advancing Translational Sciences (NCATS), 2019).
# In all, about 400,000 compounds went through this assay and about 13,000 (3.2%) were called active. The shares of active, inactive and inconclusive entries below differ from those in the screen. Calls follow the shape of the dose curve; as a rule, active = well fitted cell-killing curve with a large enough effect; inconclusive = small, poorly fitted or top-dose-only effect, or effect the other way; inactive = flat fitted curve, though single readings scatter. A potency beside an inconclusive call is a rough fit, not a confirmed value.
# Assay: qHTS assay for MDR1-selective chemotherapeutics: Primary screen using the drug-selected MDR subline cells KB-V1; also: nearly all actives have a fitted effect of over 60% in size
# Conditions: KB-V1 MDR cells viability, CellTiter-Glo, 72 h; activity change, negative = cytotoxicity: at 46.1 µM (top of the series)
# Procedure, shortened: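 Readout: CellTiter-Glo luminescence, 10 min after addition. Cells: KB-V1 MDR subline, 72 h at 37 degrees C with compound. Analysis: corrected, normalized data fitted to concentration-effect curves.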
# % is scaled to controls: 0 for no effect and ±100 for the full control effect; potency is read from the fitted curve at half-maximal effect.
SMILES,Potency,"activity change, negative = cytotoxicity"
CSc1ncc(CN2CCCC(C(=O)c3ccccc3SC)C2)cn1 (stereo not given),"inconclusive: 11.6 µM [cytotoxic, partial curve, poor fit]",
Cc1ncc([N+](=O)[O-])n1CCOC(N)=O,,inactive: -3.94%
CCCNC(=O)N1[C@H]2CC[C@@H]1C(C(=O)OC)=C(c1ccc(OC(F)(F)F)cc1)C2,,inactive: -3.31%
O=c1cccc2n1CC1CC2CN(Cc2c(F)cccc2Cl)C1 (stereo not given),"inconclusive: 23.1 µM [cytotoxic, partial curve, poor fit]",
Cc1cc(C(=O)CS(=O)(=O)c2ccc(F)cc2)cc(C)c1OC(=O)N(C)C,"inconclusive: 29.1 µM [cytotoxic, single point]",
CN(N)N=Nc1nc2c([nH]1)c(=O)n(C)c(=O)n2C,,inactive: 37.1%
CC[C@H]1CC2CN3CCc4c([nH]c5cc(OC)ccc45)[C@](C(=O)OC)(C2)[C@H]13,,inactive: 19.7%
C=CCn1c(O)c(C(CC)=NCc2cc(OC)cc(OC)c2)c(=O)[nH]c1=O,"inconclusive: 2.31 µM [cytotoxic, full curve]",
CC(Cc1cccs1)NCc1ccccc1 (stereo not given),"inconclusive: 32.6 µM [rising, single point]",
O=C(c1ccc2c3c(cccc13)CC2)C1CCCN(Cc2ncc[nH]2)C1 (stereo not given),"inconclusive: 13 µM [cytotoxic, partial curve]",
O=c1[nH]c(CN2CC=C(c3ccccc3)CC2)nc2scc(-c3ccccc3)c12,"inconclusive: 16.4 µM [cytotoxic, single point]",
CCC1(CC)C(=O)N(Cc2ccccc2)C(=O)N(Cc2ccccc2)C1=O,"inconclusive: 20.6 µM [cytotoxic, single point]",
O=C1NC2C(O)C(O)C(O)C(O)C2c2cc3c(c(O)c21)OCO3 (stereo not given),active: 0.517 µM,
CCc1nn(CC(=O)N2CCC3(CC2)OCCO3)c(=O)c2cccn12,"inconclusive: 18.4 µM [rising, single point]",
Cc1ccc(S(=O)(=O)N2CC3CC(C2)c2cccc(=O)n2C3)cc1 (stereo not given),,inactive: -9.59%
O=C(COC(=O)Cc1ccccc1)Nc1nnc(-c2ccccc2)o1,,inactive: -2%
COC(=O)C1=C(c2ccc(OCc3ccccc3)cc2)C[C@@H]2CC[C@H]1N2C(=O)NCc1ccc(Cl)cc1,active: 14.6 µM,
CSCCC(c1nnnn1-c1c(C)cccc1C)N1CCC(n2c(=O)[nH]c3ccccc32)CC1 (stereo not given),,inactive: -25%
NC(Cc1ccc(F)cc1)c1csc(Nc2ccccn2)n1 (stereo not given),"inconclusive: 20.6 µM [cytotoxic, single point]",
O=[N+]([O-])c1ccc(N2CCNCC2)cc1Sc1ccccn1,"inconclusive: 23.1 µM [cytotoxic, single point]",

# Quoted at random: 2 records from the list.
SMILES,Potency,"activity change, negative = cytotoxicity"
O=[N+]([O-])c1ccc(N2CCNCC2)cc1Sc1ccccn1,"inconclusive: 23.1 µM [cytotoxic, single point]",
Cc1cc(C(=O)CS(=O)(=O)c2ccc(F)cc2)cc(C)c1OC(=O)N(C)C,"inconclusive: 29.1 µM [cytotoxic, single point]",
